Data published in publication PMC10995623, “Apple E3 ligase MdPUB23 mediates ubiquitin-dependent degradation of MdABI5 to delay ABA-triggered leaf senescence”.
For at least one entry, the source does not settle the construct or the ends of the probe.

Test system: MdbHLH93
Test: EMSA
Conditions: 24 C, 30 min, Beyotime EMSA/Gel-Shift Kit binding buffer (composition, salt and pH not given), biotin-labelled probe, recombinant protein, label: biotin

Does “GGGGGGGGTCCACGTGGGTCACCAAC (double strand) [MdSAG18 promoter probe]” bind?
Result: binds

Does “GGGGGGGGTCCACGTGGGTCACCAAC (double strand) [MdSAG18 promoter probe]” bind (plus increasing MdABI5 (interaction partner): binding gradually enhanced)?
Result: binds
